Assay results from CN113912731A.
No constants are given. Whether binding was seen depends on the method and setting. Some binding calls cover weakened binding; strength is not graded here.

Protein sequences, listed by entry. Tags and fused reporters are not part of them. Lines headed by an entry give the natural chain unless they say otherwise; changes in a name come on top. Residues count along the entry.
UniProt Q08830, residues 23-312: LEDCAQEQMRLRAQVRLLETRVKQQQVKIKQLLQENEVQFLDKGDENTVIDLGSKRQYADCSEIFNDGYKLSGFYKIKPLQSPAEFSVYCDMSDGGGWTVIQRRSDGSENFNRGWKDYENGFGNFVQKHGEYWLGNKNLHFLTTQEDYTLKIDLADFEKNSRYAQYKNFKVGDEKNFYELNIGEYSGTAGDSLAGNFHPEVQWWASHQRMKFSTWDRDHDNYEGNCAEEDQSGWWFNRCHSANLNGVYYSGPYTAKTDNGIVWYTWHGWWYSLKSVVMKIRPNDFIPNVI

Biological target: 人FGL1-his蛋白(Sinobio;Cat:13484-H08B) (human) (UniProt Q08830)
Assay: ELISA, plate coated with human FGL1-his

binding	Binder
binds	SH-01 (antibody, V domains shown, not shown: large carriers) VH: EVQLQQSGPELVKPGASVKISCKASGYTFTDYYINWVKQKPGQGLEWIGWIYPGSGNTDHNEKFKDKATLTVDTSSSTAYMQLSSLTSEDTAVYFCLRFLLRSAYWGQGTLVTVSA VL: DIVMTQSQKFMSTSVGDRVSITCKASQNVGTAVAWYQQKPGQSPKLLIYSASNRYTGVPDRFTGSGSGTDFTLTISNMQSEDLADYFCQQYSSYPLTFGAGTKLELK
binds	SH-02 (antibody, V domains shown, not shown: large carriers) VH: EVQLQQSGPELVKPGASVKISCKASGYTFTDYYINWVKQKPGQGLEWIGWIYPGSGNTDHNEKFKDKATLTVDTSSSTAYMQLSSLTSEDTAVYFCLRFLLRSAYWGQGTLVTVSA VL: DIQMTQSPSSLSASLGERVSLTCRASQEISGYLSWLQQKPDGTIKRLIYAASTLDSGVPKRFSGSRSGSDYSLTISSLESEDFADYYCLQYASYPWTFGGGTKLEIK
